Measured values as given in the supplement of paper PMC6411743.
± gives the standard deviation of the averaged measurements. This is a selection; strong and weak results do not stand in their true shares.

Protein sequences, listed by entry. Tags and fused reporters are not part of them. Lines headed by an entry give the natural chain unless they say otherwise; changes in a name come on top.
UniProt Q9BQ39: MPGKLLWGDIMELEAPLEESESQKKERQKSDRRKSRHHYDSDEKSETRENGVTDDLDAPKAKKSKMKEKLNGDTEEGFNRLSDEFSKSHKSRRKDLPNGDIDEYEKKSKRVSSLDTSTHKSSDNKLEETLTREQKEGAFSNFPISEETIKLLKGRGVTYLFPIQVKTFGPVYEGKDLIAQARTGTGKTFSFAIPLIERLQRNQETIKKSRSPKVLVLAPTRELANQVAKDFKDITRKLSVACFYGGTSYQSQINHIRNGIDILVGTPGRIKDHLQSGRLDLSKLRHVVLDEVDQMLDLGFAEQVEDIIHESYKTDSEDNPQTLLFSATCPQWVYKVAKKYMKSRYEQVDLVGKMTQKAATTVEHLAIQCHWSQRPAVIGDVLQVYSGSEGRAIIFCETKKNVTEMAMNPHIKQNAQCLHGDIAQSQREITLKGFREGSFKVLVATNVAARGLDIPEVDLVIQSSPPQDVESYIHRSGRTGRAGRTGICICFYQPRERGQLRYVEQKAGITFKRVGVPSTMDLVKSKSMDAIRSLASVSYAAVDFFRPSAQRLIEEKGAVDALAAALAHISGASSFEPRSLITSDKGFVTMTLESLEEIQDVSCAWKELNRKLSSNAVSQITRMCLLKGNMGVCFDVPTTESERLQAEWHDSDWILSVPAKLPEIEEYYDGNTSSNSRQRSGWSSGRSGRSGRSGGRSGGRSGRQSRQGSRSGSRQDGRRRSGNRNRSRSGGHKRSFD
UniProt Q9BQI3, whole entry: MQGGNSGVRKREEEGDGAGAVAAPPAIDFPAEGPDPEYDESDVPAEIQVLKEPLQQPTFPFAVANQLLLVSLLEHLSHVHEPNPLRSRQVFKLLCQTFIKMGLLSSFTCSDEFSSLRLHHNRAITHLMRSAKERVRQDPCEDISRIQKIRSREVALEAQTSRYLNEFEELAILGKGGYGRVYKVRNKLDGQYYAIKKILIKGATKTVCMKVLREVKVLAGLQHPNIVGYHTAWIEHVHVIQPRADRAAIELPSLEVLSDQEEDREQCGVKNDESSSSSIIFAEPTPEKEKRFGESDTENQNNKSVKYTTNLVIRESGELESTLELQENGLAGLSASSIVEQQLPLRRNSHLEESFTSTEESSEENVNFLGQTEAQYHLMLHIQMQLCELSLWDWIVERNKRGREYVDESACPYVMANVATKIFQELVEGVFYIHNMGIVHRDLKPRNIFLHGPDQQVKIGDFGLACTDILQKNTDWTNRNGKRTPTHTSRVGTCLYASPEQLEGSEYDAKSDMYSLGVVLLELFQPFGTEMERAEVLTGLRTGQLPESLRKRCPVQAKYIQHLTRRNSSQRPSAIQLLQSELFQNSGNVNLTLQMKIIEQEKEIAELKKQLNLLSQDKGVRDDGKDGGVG
UniProt Q9BU76: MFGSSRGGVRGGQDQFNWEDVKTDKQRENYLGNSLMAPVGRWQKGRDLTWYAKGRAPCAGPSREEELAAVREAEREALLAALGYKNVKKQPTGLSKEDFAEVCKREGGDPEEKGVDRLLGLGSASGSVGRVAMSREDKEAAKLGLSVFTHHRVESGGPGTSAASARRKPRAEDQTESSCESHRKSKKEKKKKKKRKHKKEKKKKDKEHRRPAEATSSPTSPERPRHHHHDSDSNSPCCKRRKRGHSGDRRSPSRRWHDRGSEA
UniProt Q9BUB5: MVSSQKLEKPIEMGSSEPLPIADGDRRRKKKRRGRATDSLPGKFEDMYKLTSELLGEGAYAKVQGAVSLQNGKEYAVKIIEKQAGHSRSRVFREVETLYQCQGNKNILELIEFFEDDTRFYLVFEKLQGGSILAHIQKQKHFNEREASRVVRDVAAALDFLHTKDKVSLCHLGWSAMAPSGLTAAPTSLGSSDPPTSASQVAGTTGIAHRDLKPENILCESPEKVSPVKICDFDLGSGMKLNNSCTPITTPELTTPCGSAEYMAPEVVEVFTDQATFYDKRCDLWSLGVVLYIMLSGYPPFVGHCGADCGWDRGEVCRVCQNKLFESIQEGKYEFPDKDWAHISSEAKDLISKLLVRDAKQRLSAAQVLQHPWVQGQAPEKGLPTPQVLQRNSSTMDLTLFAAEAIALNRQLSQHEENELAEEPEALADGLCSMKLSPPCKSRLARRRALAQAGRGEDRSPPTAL
UniProt Q9BXI6: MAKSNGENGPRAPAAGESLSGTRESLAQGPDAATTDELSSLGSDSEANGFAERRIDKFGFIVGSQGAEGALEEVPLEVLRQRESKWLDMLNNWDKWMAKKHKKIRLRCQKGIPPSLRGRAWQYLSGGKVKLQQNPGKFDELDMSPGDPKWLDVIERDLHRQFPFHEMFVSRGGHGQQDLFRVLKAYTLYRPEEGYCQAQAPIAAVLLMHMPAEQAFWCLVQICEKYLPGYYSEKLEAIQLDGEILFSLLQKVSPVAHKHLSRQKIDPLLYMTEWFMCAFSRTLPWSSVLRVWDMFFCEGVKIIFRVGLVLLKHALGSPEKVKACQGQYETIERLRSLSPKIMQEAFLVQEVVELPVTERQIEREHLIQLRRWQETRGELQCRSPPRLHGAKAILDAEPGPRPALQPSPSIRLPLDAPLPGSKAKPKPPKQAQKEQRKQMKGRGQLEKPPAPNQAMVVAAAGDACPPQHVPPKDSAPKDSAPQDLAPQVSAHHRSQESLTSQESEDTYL
UniProt Q9BWS9: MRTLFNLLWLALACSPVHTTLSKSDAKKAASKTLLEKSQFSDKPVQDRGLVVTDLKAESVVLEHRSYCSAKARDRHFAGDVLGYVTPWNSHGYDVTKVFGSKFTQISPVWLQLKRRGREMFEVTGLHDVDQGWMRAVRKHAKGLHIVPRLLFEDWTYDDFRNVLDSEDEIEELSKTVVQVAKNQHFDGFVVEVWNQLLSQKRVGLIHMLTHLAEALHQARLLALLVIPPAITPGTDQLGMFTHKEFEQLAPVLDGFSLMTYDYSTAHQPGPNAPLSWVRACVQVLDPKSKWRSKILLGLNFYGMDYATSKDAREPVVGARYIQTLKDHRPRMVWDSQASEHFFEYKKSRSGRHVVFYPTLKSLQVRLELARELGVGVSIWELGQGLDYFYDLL
UniProt Q9BTV5: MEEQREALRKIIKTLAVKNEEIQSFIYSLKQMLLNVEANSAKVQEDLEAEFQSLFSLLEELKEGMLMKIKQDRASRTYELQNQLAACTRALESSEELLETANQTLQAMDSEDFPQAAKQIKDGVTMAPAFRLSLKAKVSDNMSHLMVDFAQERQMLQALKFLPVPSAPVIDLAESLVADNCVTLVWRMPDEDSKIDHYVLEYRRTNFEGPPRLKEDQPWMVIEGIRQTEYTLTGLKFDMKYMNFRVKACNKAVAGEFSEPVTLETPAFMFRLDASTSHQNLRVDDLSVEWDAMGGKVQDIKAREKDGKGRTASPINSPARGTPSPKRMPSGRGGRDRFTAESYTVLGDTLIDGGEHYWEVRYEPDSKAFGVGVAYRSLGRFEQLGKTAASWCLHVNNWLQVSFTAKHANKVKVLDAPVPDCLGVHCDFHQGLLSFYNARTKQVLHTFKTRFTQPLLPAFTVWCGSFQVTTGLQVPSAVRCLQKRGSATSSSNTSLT
UniProt Q9BX95: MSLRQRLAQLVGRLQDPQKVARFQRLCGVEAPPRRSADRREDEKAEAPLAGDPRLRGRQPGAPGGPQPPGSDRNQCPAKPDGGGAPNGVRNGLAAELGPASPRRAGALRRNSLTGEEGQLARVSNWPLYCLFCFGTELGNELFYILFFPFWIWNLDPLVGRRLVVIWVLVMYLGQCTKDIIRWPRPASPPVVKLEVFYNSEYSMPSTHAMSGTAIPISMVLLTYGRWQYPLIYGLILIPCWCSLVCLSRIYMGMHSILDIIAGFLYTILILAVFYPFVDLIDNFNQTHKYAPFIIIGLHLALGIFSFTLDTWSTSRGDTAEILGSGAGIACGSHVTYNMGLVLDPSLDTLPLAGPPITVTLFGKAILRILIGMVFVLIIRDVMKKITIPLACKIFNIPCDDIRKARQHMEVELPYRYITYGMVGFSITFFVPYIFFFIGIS
UniProt Q99816: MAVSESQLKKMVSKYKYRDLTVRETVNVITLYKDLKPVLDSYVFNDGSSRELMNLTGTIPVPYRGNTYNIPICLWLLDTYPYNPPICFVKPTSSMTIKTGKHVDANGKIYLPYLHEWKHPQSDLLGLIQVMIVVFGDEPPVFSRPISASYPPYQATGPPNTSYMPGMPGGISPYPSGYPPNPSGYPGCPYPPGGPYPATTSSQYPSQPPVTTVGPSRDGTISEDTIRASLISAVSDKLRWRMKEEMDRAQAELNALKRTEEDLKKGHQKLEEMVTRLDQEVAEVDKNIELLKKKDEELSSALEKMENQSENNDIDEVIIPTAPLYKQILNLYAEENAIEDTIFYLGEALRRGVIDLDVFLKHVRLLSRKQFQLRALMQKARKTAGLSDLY
UniProt Q9BPZ3: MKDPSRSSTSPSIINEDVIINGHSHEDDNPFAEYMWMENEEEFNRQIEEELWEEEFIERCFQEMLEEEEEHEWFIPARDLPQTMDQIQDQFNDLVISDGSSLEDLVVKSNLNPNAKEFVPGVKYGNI
UniProt Q9BTU6: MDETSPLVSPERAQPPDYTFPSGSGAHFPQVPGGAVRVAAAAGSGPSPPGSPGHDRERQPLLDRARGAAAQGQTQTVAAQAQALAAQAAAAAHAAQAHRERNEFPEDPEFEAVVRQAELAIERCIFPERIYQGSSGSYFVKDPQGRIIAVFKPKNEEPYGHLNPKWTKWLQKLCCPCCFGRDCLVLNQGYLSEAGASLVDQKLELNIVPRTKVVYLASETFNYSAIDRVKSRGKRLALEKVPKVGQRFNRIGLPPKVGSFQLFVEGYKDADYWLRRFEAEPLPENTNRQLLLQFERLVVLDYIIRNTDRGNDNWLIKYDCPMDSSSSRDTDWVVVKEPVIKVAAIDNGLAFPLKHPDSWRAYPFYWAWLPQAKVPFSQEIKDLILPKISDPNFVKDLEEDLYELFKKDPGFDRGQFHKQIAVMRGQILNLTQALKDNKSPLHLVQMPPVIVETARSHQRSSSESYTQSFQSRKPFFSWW
UniProt Q9BT23: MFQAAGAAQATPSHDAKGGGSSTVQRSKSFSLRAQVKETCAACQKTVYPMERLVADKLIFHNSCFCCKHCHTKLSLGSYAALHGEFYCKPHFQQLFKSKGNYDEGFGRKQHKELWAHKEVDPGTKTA
UniProt Q9BV19: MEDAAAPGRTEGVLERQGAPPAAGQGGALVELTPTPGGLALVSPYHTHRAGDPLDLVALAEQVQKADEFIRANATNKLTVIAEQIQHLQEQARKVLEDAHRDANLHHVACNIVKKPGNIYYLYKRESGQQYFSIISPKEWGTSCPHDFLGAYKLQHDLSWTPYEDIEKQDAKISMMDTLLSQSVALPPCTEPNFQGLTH
UniProt Q96SU4: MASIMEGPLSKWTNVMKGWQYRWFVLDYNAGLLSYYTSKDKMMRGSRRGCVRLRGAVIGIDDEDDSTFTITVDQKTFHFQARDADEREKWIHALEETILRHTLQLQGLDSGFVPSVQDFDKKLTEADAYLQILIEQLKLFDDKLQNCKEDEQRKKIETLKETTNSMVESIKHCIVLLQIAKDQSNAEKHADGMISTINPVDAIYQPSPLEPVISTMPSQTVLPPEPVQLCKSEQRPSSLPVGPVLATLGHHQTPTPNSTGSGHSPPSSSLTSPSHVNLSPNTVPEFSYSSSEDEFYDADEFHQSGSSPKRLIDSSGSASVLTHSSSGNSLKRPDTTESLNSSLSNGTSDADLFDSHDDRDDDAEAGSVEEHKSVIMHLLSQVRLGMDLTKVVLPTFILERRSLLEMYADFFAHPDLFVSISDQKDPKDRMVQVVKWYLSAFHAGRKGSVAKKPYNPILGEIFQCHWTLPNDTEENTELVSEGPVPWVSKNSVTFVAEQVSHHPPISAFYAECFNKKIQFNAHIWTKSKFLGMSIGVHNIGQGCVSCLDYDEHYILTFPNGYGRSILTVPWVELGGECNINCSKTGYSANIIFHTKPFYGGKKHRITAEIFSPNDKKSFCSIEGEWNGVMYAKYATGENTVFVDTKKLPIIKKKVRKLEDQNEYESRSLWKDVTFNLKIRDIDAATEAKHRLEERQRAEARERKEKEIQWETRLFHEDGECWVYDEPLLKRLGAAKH
UniProt Q9BYC5: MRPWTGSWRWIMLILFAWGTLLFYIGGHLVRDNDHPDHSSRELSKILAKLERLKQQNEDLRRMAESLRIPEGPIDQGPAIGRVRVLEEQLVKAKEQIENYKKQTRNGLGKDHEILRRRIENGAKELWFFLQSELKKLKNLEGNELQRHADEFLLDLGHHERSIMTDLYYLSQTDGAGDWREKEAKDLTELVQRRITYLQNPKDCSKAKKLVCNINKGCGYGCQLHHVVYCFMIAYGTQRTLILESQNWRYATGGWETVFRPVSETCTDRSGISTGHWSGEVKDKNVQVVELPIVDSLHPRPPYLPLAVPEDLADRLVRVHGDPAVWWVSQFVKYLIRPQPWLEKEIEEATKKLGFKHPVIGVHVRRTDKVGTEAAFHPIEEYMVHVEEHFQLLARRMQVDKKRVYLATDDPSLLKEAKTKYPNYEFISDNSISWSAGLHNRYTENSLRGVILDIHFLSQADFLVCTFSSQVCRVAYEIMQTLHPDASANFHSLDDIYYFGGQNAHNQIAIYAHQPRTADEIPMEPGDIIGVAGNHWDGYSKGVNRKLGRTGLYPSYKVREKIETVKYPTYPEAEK

These targets were tested with Nc1ncnc2c1ncn2[C@@H]1O[C@H](COP(=O)(O)OP(=O)(O)NP(=O)(O)O)[C@@H](O)[C@H]1O [adenylyl imidodiphosphate] (assay: NP40-soluble protein abundance relative to vehicle (solubility fold change) (ratio); higher = more soluble protein in presence of AMP-PNP). Conditions: concentration: 2mM.
How it was run: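 Crude Jurkat lysate, prepared by Dounce homogenisation, was exposed to eight concentrations from 0.1 to 10 mM for 10 min at room temperature and then 3 min at 37 °C. Solubilisation used 0.8% NP40 with benzonase for 60 min at 4 °C, followed by ultracentrifugation and TMT labelling of the supernatant for LC-MS/MS. After vsn normalisation of intensities, each value is the fold change against the detergent-processed vehicle within each replicate, across three independent experiments.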
UniProt Q9BQ39 and related entries gave an NP40-soluble protein abundance of 1.27 ± 0.062.
Target UniProt Q9BT25 and related entries has an NP40-soluble protein abundance of 1.04 ± 0.099.
Work on TRMT61B (UniProt Q9BVS5) yielded an NP40-soluble protein abundance of 0.984 ± 0.051.
UniProt Q9BQI3 and related entries showed an NP40-soluble protein abundance of 0.935 ± 0.039.
UniProt Q9BU76 and related entries showed an NP40-soluble protein abundance of 1.04 ± 0.052.
In the case of UniProt Q9BUB5 and related entries, the NP40-soluble protein abundance is reported as 1.07 ± 0.026.
CNPY3 (UniProt Q9BT09) showed an NP40-soluble protein abundance of 1.03 ± 0.11.
CCT7 (UniProt Q99832) showed an NP40-soluble protein abundance of 0.906 ± 0.052.
Target UniProt Q9BXI6 and related entries has an NP40-soluble protein abundance of 1.02 ± 0.037.
In the case of UniProt Q96S55 and related entries, the NP40-soluble protein abundance is reported as 0.967 ± 0.057.
In the case of UniProt Q9BWS9 and related entries, the NP40-soluble protein abundance is reported as 0.89 ± 0.066.
For UniProt Q9BTV5 and related entries, the NP40-soluble protein abundance was 0.997 ± 0.035.
In the case of UniProt Q96ST2 and related entries, the NP40-soluble protein abundance is reported as 1.04 ± 0.072.
MRPS26 (UniProt Q9BYN8) showed an NP40-soluble protein abundance of 1.07 ± 0.079.
In the case of YTHDF1 (UniProt Q9BYJ9), the NP40-soluble protein abundance is reported as 1.05 ± 0.032.
For UniProt Q9BW85, the NP40-soluble protein abundance was 1.11 ± 0.097.
In the case of SGPP1 (UniProt Q9BX95), the NP40-soluble protein abundance is reported as 0.994 ± 0.033.
Work on UniProt Q9BUK6 and related entries yielded an NP40-soluble protein abundance of 0.959 ± 0.031.
Target MAK16 (UniProt Q9BXY0) has an NP40-soluble protein abundance of 1.08 ± 0.015.
Work on TSG101 (UniProt Q99816) yielded an NP40-soluble protein abundance of 0.995 ± 0.033.
UniProt Q9BPZ3 and related entries was tested, and the NP40-soluble protein abundance was 1.01 ± 0.044.
POP1 (UniProt Q99575) was tested, and the NP40-soluble protein abundance was 0.982 ± 0.028.
Work on KIFC1 (UniProt Q9BW19) yielded an NP40-soluble protein abundance of 1.13 ± 0.039.
For UniProt Q9BTY7, the NP40-soluble protein abundance was 0.988 ± 0.032.
Work on PI4K2A (UniProt Q9BTU6) yielded an NP40-soluble protein abundance of 0.965 ± 0.069.
DNAJC7 (UniProt Q99615) gave an NP40-soluble protein abundance of 1.05 ± 0.052.
For KATNB1 (UniProt Q9BVA0), the NP40-soluble protein abundance was 1.03 ± 0.035.
LIMD2 (UniProt Q9BT23) was tested, and the NP40-soluble protein abundance was 1.12 ± 0.055.
NLN (UniProt Q9BYT8) was tested, and the NP40-soluble protein abundance was 0.922 ± 0.09.
With UniProt Q9BTX1 and related entries the NP40-soluble protein abundance was 1.04 ± 0.018.
With UniProt Q96QZ7 and related entries the NP40-soluble protein abundance was 1.07 ± 0.042.
C1orf50 (UniProt Q9BV19) was tested, and the NP40-soluble protein abundance was 0.9656 ± 0.009.
Work on PSMG3 (UniProt Q9BT73) yielded an NP40-soluble protein abundance of 0.98 ± 0.029.
In the case of MIPEP (UniProt Q99797), the NP40-soluble protein abundance is reported as 0.928 ± 0.061.
UniProt Q96SU4 and related entries showed an NP40-soluble protein abundance of 0.987 ± 0.017.
Work on UniProt Q9BV73 and related entries yielded an NP40-soluble protein abundance of 1.05 ± 0.042.
Work on MND1 (UniProt Q9BWT6) yielded an NP40-soluble protein abundance of 1.05 ± 0.067.
FUT8 (UniProt Q9BYC5) showed an NP40-soluble protein abundance of 0.992 ± 0.027.

Same assay, conditions: concentration: 4mM
UniProt Q9BQ39 and related entries was tested, and the NP40-soluble protein abundance was 1.35 ± 0.023.
UniProt Q9BT25 and related entries showed an NP40-soluble protein abundance of 0.96 ± 0.048.
Work on TRMT61B (UniProt Q9BVS5) yielded an NP40-soluble protein abundance of 0.991 ± 0.041.
With UniProt Q9BQI3 and related entries the NP40-soluble protein abundance was 1.008 ± 0.0057.
For UniProt Q9BU76 and related entries, the NP40-soluble protein abundance was 1 ± 0.067.
For UniProt Q9BUB5 and related entries, the NP40-soluble protein abundance was 1.08 ± 0.011.
CNPY3 (UniProt Q9BT09) was tested, and the NP40-soluble protein abundance was 0.956 ± 0.029.
In the case of CCT7 (UniProt Q99832), the NP40-soluble protein abundance is reported as 0.907 ± 0.092.
Target UniProt Q9BXI6 and related entries has an NP40-soluble protein abundance of 1.01 ± 0.023.
UniProt Q96S55 and related entries showed an NP40-soluble protein abundance of 0.951 ± 0.082.
With UniProt Q9BWS9 and related entries the NP40-soluble protein abundance was 0.955 ± 0.026.
UniProt Q9BTV5 and related entries showed an NP40-soluble protein abundance of 1.04 ± 0.011.
With UniProt Q96ST2 and related entries the NP40-soluble protein abundance was 1 ± 0.024.
In the case of MRPS26 (UniProt Q9BYN8), the NP40-soluble protein abundance is reported as 0.955 ± 0.051.
YTHDF1 (UniProt Q9BYJ9) was tested, and the NP40-soluble protein abundance was 1.02 ± 0.033.
UniProt Q9BW85 was tested, and the NP40-soluble protein abundance was 1.03 ± 0.041.
In the case of SGPP1 (UniProt Q9BX95), the NP40-soluble protein abundance is reported as 1 ± 0.056.
UniProt Q9BUK6 and related entries showed an NP40-soluble protein abundance of 0.993 ± 0.038.
MAK16 (UniProt Q9BXY0) showed an NP40-soluble protein abundance of 1.05 ± 0.027.
TSG101 (UniProt Q99816) gave an NP40-soluble protein abundance of 0.964 ± 0.025.
Work on UniProt Q9BPZ3 and related entries yielded an NP40-soluble protein abundance of 0.945 ± 0.028.
Target POP1 (UniProt Q99575) has an NP40-soluble protein abundance of 0.994 ± 0.024.
For KIFC1 (UniProt Q9BW19), the NP40-soluble protein abundance was 1.11 ± 0.044.
Target UniProt Q9BTY7 has an NP40-soluble protein abundance of 0.97 ± 0.041.
PI4K2A (UniProt Q9BTU6) gave an NP40-soluble protein abundance of 1.02 ± 0.023.
Target DNAJC7 (UniProt Q99615) has an NP40-soluble protein abundance of 1.01 ± 0.015.
KATNB1 (UniProt Q9BVA0) was tested, and the NP40-soluble protein abundance was 1.052 ± 0.01.
Work on LIMD2 (UniProt Q9BT23) yielded an NP40-soluble protein abundance of 1.09 ± 0.092.
For NLN (UniProt Q9BYT8), the NP40-soluble protein abundance was 1.018 ± 0.0097.
UniProt Q9BTX1 and related entries was tested, and the NP40-soluble protein abundance was 1.02 ± 0.04.
In the case of UniProt Q96QZ7 and related entries, the NP40-soluble protein abundance is reported as 1.01 ± 0.027.
C1orf50 (UniProt Q9BV19) showed an NP40-soluble protein abundance of 0.979 ± 0.014.
For PSMG3 (UniProt Q9BT73), the NP40-soluble protein abundance was 1.01 ± 0.05.
MIPEP (UniProt Q99797) was tested, and the NP40-soluble protein abundance was 0.998 ± 0.021.
UniProt Q96SU4 and related entries showed an NP40-soluble protein abundance of 0.982 ± 0.021.
For UniProt Q9BV73 and related entries, the NP40-soluble protein abundance was 1.02 ± 0.026.
Target MND1 (UniProt Q9BWT6) has an NP40-soluble protein abundance of 0.989 ± 0.036.
For FUT8 (UniProt Q9BYC5), the NP40-soluble protein abundance was 0.964 ± 0.013.

Same assay, conditions: concentration: 6mM
For UniProt Q9BQ39 and related entries, the NP40-soluble protein abundance was 1.43 ± 0.04.
Target UniProt Q9BT25 and related entries has an NP40-soluble protein abundance of 0.94 ± 0.018.
Target TRMT61B (UniProt Q9BVS5) has an NP40-soluble protein abundance of 0.975 ± 0.026.
UniProt Q9BQI3 and related entries showed an NP40-soluble protein abundance of 0.983 ± 0.016.
With UniProt Q9BU76 and related entries the NP40-soluble protein abundance was 1.01 ± 0.035.
In the case of UniProt Q9BUB5 and related entries, the NP40-soluble protein abundance is reported as 1.04 ± 0.047.
For CNPY3 (UniProt Q9BT09), the NP40-soluble protein abundance was 0.971 ± 0.015.
Work on CCT7 (UniProt Q99832) yielded an NP40-soluble protein abundance of 0.96 ± 0.065.
UniProt Q9BXI6 and related entries showed an NP40-soluble protein abundance of 1.01 ± 0.011.
In the case of UniProt Q96S55 and related entries, the NP40-soluble protein abundance is reported as 0.942 ± 0.08.
UniProt Q9BWS9 and related entries showed an NP40-soluble protein abundance of 0.965 ± 0.022.
Work on UniProt Q9BTV5 and related entries yielded an NP40-soluble protein abundance of 1.01 ± 0.033.
Work on UniProt Q96ST2 and related entries yielded an NP40-soluble protein abundance of 1.06 ± 0.035.
Target MRPS26 (UniProt Q9BYN8) has an NP40-soluble protein abundance of 0.948 ± 0.077.
Work on YTHDF1 (UniProt Q9BYJ9) yielded an NP40-soluble protein abundance of 1.01 ± 0.024.
UniProt Q9BW85 gave an NP40-soluble protein abundance of 1.06 ± 0.028.
SGPP1 (UniProt Q9BX95) gave an NP40-soluble protein abundance of 1.05 ± 0.05.
Work on UniProt Q9BUK6 and related entries yielded an NP40-soluble protein abundance of 0.995 ± 0.038.
Target MAK16 (UniProt Q9BXY0) has an NP40-soluble protein abundance of 1.06 ± 0.053.
TSG101 (UniProt Q99816) gave an NP40-soluble protein abundance of 0.978 ± 0.013.
UniProt Q9BPZ3 and related entries gave an NP40-soluble protein abundance of 0.966 ± 0.051.
With POP1 (UniProt Q99575) the NP40-soluble protein abundance was 0.965 ± 0.056.
For KIFC1 (UniProt Q9BW19), the NP40-soluble protein abundance was 1.1 ± 0.038.
Target UniProt Q9BTY7 has an NP40-soluble protein abundance of 0.915 ± 0.04.
PI4K2A (UniProt Q9BTU6) was tested, and the NP40-soluble protein abundance was 0.965 ± 0.022.
In the case of DNAJC7 (UniProt Q99615), the NP40-soluble protein abundance is reported as 1.03 ± 0.016.
In the case of KATNB1 (UniProt Q9BVA0), the NP40-soluble protein abundance is reported as 1.003 ± 0.0066.
In the case of LIMD2 (UniProt Q9BT23), the NP40-soluble protein abundance is reported as 1.111 ± 0.0068.
Work on NLN (UniProt Q9BYT8) yielded an NP40-soluble protein abundance of 0.951 ± 0.016.
Work on UniProt Q9BTX1 and related entries yielded an NP40-soluble protein abundance of 0.993 ± 0.034.
UniProt Q96QZ7 and related entries showed an NP40-soluble protein abundance of 0.9984 ± 0.0012.
C1orf50 (UniProt Q9BV19) was tested, and the NP40-soluble protein abundance was 0.963 ± 0.036.
Work on PSMG3 (UniProt Q9BT73) yielded an NP40-soluble protein abundance of 1.01 ± 0.019.
In the case of MIPEP (UniProt Q99797), the NP40-soluble protein abundance is reported as 0.9715 ± 0.0032.
Work on UniProt Q96SU4 and related entries yielded an NP40-soluble protein abundance of 0.971 ± 0.011.
For UniProt Q9BV73 and related entries, the NP40-soluble protein abundance was 0.987 ± 0.017.
For MND1 (UniProt Q9BWT6), the NP40-soluble protein abundance was 0.966 ± 0.039.
Work on FUT8 (UniProt Q9BYC5) yielded an NP40-soluble protein abundance of 0.971 ± 0.063.
